We go through two molecules from ChEMBL document CHEMBL1133658 (J Med Chem, 2000).

Chains of the proteins cited; added tags and fusions are not shown.
UniProt P02550, whole entry, looked up: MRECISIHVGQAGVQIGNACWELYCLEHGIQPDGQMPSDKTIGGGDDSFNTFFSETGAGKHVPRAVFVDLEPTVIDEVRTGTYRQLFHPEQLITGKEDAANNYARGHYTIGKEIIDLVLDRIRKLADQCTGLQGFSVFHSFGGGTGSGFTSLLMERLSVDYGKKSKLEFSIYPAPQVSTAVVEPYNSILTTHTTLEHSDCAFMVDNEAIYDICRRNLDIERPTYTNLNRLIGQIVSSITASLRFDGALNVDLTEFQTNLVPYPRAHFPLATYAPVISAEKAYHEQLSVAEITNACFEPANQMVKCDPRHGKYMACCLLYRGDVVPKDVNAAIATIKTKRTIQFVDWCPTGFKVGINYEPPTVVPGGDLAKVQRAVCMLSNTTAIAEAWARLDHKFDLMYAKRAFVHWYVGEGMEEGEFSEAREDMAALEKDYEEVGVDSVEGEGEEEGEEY

For the test, the target named is Tubulin alpha chain (Sus scrofa, UniProt P02550).

On to `COc1cc2c(c(OC)c1OC)-c1ccc(SC)c(=O)cc1[C@H](NC(C)=O)CC2`, for which it took 9.77 µM to reach half-maximal inhibition (IC50). The value for `COc1cc2c(c(OC)c1OC)-c1ccc(SC)c(=O)cc1[C@@H](NC(C)=O)CC2` [THIOCOLCHICINE] was 0.646 µM.
